This note sets out measurements from paper PMC7465060.

The chains behind the UniProt entries cited, without tags or fusion partners.
UniProt P30279: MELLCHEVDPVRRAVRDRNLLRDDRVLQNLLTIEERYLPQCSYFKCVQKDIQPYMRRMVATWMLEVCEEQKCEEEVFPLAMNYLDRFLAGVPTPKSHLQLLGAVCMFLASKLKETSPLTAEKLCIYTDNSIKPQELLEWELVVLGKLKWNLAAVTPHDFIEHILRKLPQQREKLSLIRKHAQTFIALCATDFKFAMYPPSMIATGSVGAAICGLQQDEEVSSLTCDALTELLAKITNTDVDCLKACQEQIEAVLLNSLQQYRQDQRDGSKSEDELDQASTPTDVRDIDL
UniProt Q13568: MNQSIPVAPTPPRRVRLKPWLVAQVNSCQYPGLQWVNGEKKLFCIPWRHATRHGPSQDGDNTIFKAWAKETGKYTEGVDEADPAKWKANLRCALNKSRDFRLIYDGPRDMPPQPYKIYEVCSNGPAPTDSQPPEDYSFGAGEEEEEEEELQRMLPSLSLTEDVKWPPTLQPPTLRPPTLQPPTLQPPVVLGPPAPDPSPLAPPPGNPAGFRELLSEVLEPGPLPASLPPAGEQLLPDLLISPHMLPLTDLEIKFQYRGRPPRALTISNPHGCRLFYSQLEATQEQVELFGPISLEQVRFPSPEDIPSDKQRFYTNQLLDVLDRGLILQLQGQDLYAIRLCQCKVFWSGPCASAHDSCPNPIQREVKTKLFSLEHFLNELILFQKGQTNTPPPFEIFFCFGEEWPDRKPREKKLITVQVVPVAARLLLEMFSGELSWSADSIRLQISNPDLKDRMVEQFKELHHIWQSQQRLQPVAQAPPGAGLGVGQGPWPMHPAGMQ

These are yes or no findings as the source states them, for the method shown. In cells and extracts the contact can be indirect. Some results given as binding are weak or reduced against the parent protein; the word gives no strength.

In this test the target is T1, FBXL8 (human (endogenous in MCF7 and MDA-MB231)) (UniProt Q96CD0).
T1 sequence: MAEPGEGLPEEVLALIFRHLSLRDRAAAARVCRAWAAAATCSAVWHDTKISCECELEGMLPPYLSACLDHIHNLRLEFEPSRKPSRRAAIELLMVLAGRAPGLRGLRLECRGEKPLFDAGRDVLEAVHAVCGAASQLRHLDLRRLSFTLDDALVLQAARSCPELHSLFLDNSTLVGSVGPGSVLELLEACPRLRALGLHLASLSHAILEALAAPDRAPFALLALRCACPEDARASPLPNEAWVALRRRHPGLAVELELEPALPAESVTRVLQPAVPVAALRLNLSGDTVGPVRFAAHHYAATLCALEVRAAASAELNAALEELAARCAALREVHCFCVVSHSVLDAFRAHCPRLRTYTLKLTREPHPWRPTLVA
In words: co-IP; total cell lysates of MCF7 or MDA-MB231 cells (48 h after FBXL8-siRNA or control siRNA) in CHAPS lysis buffer (20 mM Tris-HCl pH 7.5, 5 mM MgCl2, 137 mM KCl, 1 mM EDTA, 1 mM EGTA, 1% CHAPS), precleared, incubated overnight at 4 °C with anti-FBXL8 or control IgG2b antibody, protein G …; immunoblot for FBXL8, CCND2 or IRF5. Background: A western blot detects proteins with antibodies after separation by electrophoresis.

Regarding “Cyclin D2 (CCND2) (from UniProt P30279 1-289)”, the binding entry is given as “binds”.

In the case of “Interferon Regulatory Factor 5 (IRF5) (from UniProt Q13568 1-498)”, the binding result is “binds”.
